Source: the supplement of paper PMC6078165

Test system: MDAMB231
Test: relative JC-1 red fluorescence (viability) vs pre-drug, coculture with fibroblast (fraction); higher = more viable cancer cells
Method: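 JC-1 labelled TNBC cells cocultured 1:1 (1,500 cells each) with CellTrace Violet stained primary or stromal fibroblasts in 384-well plates in FluoroBrite medium, treated with one of 42 anticancer drugs at 0.1, 1, 10 or 100 uM. JC-1 red fluorescence (mitochondrial integrity in cancer cells only) was read by plate reader every 8 h for 72 h. Values are normalised to each well's pre-drug value. The stock of one drug was tenfold lower, so its dose labels may be too high.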

CCc1c2c(nc3ccc(OC(=O)N4CCC(N5CCCCC5)CC4)cc13)-c1cc3c(c(=O)n1C2)COC(=O)[C@]3(O)CC [Irinotecan]
relative JC-1 red fluorescence
Conditions	8 h	16 h	24 h	32 h	40 h	48 h	56 h	64 h	72 h
10 µM, coculture fibroblast: C12385	0.786	0.763	0.655	0.651	0.589	0.55	0.507	0.493	0.472
10 µM, coculture fibroblast: H6013	0.9114	0.873	0.848	0.84	0.8	0.77	0.759	0.741	0.704
10 µM, coculture fibroblast: H6019	0.846	0.824	0.765	0.766	0.724	0.697	0.662	0.644	0.601
10 µM, coculture fibroblast: H6076	0.908	0.852	0.827	0.812	0.79	0.766	0.752	0.753	0.752
10 µM, coculture fibroblast: H6231	0.9418	0.8679	0.843	0.817	0.787	0.763	0.72	0.709	0.688
10 µM, coculture fibroblast: HADF	0.9021	0.8527	0.8259	0.7937	0.764	0.699	0.696	0.681	0.627
10 µM, coculture fibroblast: HCFa	0.888	0.84664	0.8248	0.793	0.759	0.716	0.695	0.66	0.625
10 µM, coculture fibroblast: HCPF	0.89227	0.818	0.789	0.791	0.751	0.72	0.682	0.654	0.63
10 µM, coculture fibroblast: HHSteC	0.93	0.938	0.797	0.848	0.718	0.792	0.696	0.747	0.776
10 µM, coculture fibroblast: HMF	0.9141	0.822	0.783	0.756	0.718	0.679	0.641	0.624	0.604
10 µM, coculture fibroblast: HPFa	0.9478	0.913	0.862	0.812	0.786	0.74	0.6841	0.652	0.613
10 µM, coculture fibroblast: HUF	0.884	0.7898	0.7804	0.674	0.601	0.569	0.52	0.509	0.489
10 µM, coculture fibroblast: Hs5	0.856	0.809	0.785	0.753	0.727	0.6873	0.674	0.657	0.6457
10 µM, coculture fibroblast: Hs27A	0.9038	0.8598	0.8236	0.802	0.759	0.7014	0.717	0.702	0.663
10 µM, coculture fibroblast: Hs343T	0.917	0.846	0.793	0.765	0.712	0.665	0.621	0.586	0.562
10 µM, coculture fibroblast: WS1	0.782	0.74406	0.6588	0.6506	0.606	0.5694	0.539	0.539	0.506
100 µM, coculture fibroblast: C12385	0.815	0.8286	0.822	0.8391	0.786	0.79	0.774	0.789	0.7684
100 µM, coculture fibroblast: H6013	0.9365	0.924	0.906	0.911	0.8926	0.876	0.875	0.8697	0.838
100 µM, coculture fibroblast: H6019	0.8705	0.864	0.881	0.8597	0.852	0.87	0.861	0.896	0.896
100 µM, coculture fibroblast: H6076	0.9266	0.924	0.9326	0.9224	0.9	0.868	0.866	0.873	0.875
100 µM, coculture fibroblast: H6231	0.977	0.895	0.946	0.937	0.893	0.873	0.857	0.835	0.805
100 µM, coculture fibroblast: HADF	0.932	0.9382	0.935	0.929	0.924	0.899	0.893	0.8994	0.848
100 µM, coculture fibroblast: HCFa	0.963	0.907	0.897	0.911	0.853	0.928	0.921	0.887	0.859
100 µM, coculture fibroblast: HCPF	0.926	0.9024	0.8791	0.8655	0.835	0.81	0.788	0.759	0.745
100 µM, coculture fibroblast: HHSteC	0.96	0.903	0.831	0.848	0.84	0.833	0.835	0.813	0.943
100 µM, coculture fibroblast: HMF	0.9459	0.9374	0.9272	0.911	0.894	0.8662	0.846	0.83	0.814
100 µM, coculture fibroblast: HPFa	0.9581	0.9737	0.9587	0.944	0.949	0.934	0.911	0.893	0.876
100 µM, coculture fibroblast: HUF	0.95	0.91578	0.904	0.905	0.874	0.882	0.852	0.87	0.87
100 µM, coculture fibroblast: Hs5	0.918	0.92	0.922	0.908	0.901	0.868	0.867	0.852	0.841
100 µM, coculture fibroblast: Hs27A	0.9431	0.951	0.94	0.949	0.947	0.924	0.8927	0.847	0.929
100 µM, coculture fibroblast: Hs343T	0.9515	0.9416	0.9493	0.931	0.895	0.868	0.846	0.823	0.798
100 µM, coculture fibroblast: WS1	0.8433	0.824	0.853	0.803	0.793	0.793	0.784	0.8018	0.793

Values are relative to the signal before dosing, not to a vehicle control; the signal also falls without drug.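 Fibroblast labels denote human fibroblasts, mainly primary ones from uterus (C12385, HUF), lung (H6013), bone (Hs27A), adrenal (HADF) and skin (WS1), plus mammary HMF and breast cancer-associated Hs343T. Cancer cells are basal-like or mesenchymal-like triple-negative breast cancer lines. A hit is a response shift exceeding 3x replicate standard deviation. The tissue of the other fibroblasts is not given here.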
